Assay results from patent US20070191324A1, “Methods for treatment or prophylaxis of aldosterone-mediated pathogenic effects in a subject using an epoxy-steroidal aldosterone antagonist” (priority 1999, published 2007).

The chains behind the UniProt entries cited, without tags or fusion partners. Where a name states a change or a piece, a line headed by the entry shows the natural chain unless it says otherwise.
UniProt P01019: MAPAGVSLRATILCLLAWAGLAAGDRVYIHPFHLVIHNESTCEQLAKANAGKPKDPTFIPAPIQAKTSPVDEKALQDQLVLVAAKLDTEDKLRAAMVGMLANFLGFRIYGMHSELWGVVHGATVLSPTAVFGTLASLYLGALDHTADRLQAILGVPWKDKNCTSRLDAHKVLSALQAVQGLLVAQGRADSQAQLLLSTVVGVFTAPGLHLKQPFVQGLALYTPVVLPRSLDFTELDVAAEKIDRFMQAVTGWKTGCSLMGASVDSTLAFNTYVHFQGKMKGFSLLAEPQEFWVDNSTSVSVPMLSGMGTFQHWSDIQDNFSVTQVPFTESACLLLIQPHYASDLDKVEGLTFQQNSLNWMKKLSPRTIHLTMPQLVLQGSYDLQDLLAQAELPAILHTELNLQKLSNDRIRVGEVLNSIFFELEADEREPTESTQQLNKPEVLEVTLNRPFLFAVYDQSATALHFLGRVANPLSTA

Test system: captopril-treated saline-drinking SHRSP
Assay: Angiotensin II-induced renal damage in captopril-treated saline-drinking SHRSP, Protocol 2 (Example A-8)
Assay type: in vivo, rat (SHRSP/A3N)
Conditions: captopril 50 mg/kg/d; angiotensin II 25 ng/min; eplerenone 100 mg/kg/d
Experimental: Animals. Studies were conducted in accordance with institutional guidelines using male SHRSP/A3N (generations F-75 to F-78), n=37, from our local colony. These animals were bred from NIH stock, derived from the SHRSP/A3N substrain described originally by Okamoto and coworkers (Okamoto K et al. Circ. Res. 34 and 35 (suppl I):I-143-I-153.). All animals were housed in a room maintained on a 12:12-h light:dark-cycle and an ambient temperature of 22±1° C. in the Animal Care Facility at New York Medical College. Rats were weaned at 4 weeks of age and allowed free access to Purina Lab Chow 5001 (Ralston Purina, St. Louis, Mo.) and tap water until the initiation of experimental protocols.
SHRSP were placed on Stroke-Prone Rodent Diet (#39-288, Zeigler Bros Inc., Gardners, Pa.) and 1% NaCl drinking solution ad libitum starting at 8.3 weeks of age. […] Systolic blood pressure and heart rate were measured each week. […]
Assays and Analyses. Systolic blood pressure and heart rate of awake animals were measured by tail-cuff plethysmography using a Natsume KN-210 manometer and tachometer (Peninsula Laboratories Inc., Belmont, Calif.). […] Urinary protein concentration was determined by the sulfosalicylic acid turbidity method. Plasma aldosterone was measured by radioimmunoassay using ^125I-aldosterone as a tracer (Coat-a Count Aldosterone, Diagnostic Products Co., Los Angeles, Calif.). […]

Substance: Angiotensin II: Angiotensin II (human type) infused by osmotic minipump (DRVYIHPF; Angiotensin-2; UniProt P01019 25-32, looked up)
- absolute kidney weight at autopsy: 2.12 ± 0.06 g
- body weight at the end of the experiment: 223 ± 7 g
